Binding data for eleven molecules are collected here from publication PMC8618245, “Mechanisms of CP190 Interaction with Architectural Proteins in Drosophila Melanogaster” (International Journal of Molecular Sciences, 2021).

Residue numbers refer to the chain shown, from its start. Names and notes keep the numbering of the source. No constants are given. Whether binding was seen depends on the method and setting. For some of these results: Binding seen in cells or lysates may run through a third protein. Some entries that bind do so weakly or less than the wild type. Where a sequence is shown, tags or fusion partners need not be part of it.

Assay [1] concerns the target T1, CP190 1–126 (BTB domain), tag cleaved, crystallised (Drosophila melanogaster), Q24478.
T1 chain: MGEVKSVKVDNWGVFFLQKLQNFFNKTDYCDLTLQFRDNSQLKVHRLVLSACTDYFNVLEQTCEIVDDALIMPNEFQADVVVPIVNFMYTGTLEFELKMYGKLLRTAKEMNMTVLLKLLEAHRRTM
Briefly: crystal structure; CP190 1–126, counter-diffusion in capillaries, 0.1 M HEPES pH 7.5, ammonium and potassium phosphate, +20 °C; 1.4 Å; dimer in the crystal; both purified. To be noted: remark: other sources report otherwise.

Assay [2] addresses GST-fused dCTCF 715–733 (Drosophila melanogaster) (UniProt Q9VS55). Briefly: pull-down.
Assay [3] deals with T2, GST-fused Pita 220–232 (Drosophila melanogaster) (UniProt Q95RQ8).
T2 sequence: KVLNKSSIRILNK
Briefly: pull-down; GST pull-down from lysate of BL21 cells co-expressing the GST-fused C2H2 fragment and 6×His-Thioredoxin-fused CP190 1–126; glutathione agarose, buffer C (20 mM Tris pH 7.5, 150 mM NaCl, 10 mM MgCl2, 0.1 mM ZnCl2, 0.1% NP40, 10% glycerol, 1 mM DTT), +4 °C, washes with 500 mM NaCl.

Assay [4] deals with T3, GST-fused Pita 95–193 (Drosophila melanogaster) (UniProt Q95RQ8).
T3 sequence: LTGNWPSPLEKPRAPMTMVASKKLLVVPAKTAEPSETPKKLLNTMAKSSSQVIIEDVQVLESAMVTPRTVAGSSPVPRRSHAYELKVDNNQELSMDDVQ
The description is as above.

The target of assay [5] is T4, GST-fused Su(Hw) 1–150 (Drosophila melanogaster) (UniProt P08970).
T4 sequence: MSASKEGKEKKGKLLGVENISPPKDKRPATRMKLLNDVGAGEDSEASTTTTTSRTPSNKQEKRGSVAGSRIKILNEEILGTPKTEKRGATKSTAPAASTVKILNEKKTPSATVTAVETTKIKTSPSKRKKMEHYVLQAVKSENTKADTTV
The description is as above.

For assay [6], the target named is T5, GST-fused Su(Hw) 150–187 (Drosophila melanogaster) (UniProt P08970).
T5 sequence: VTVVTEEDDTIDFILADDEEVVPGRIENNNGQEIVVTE
The assay is described as above.

The target in assay [7] is T6, CP190 D domain fused to the GAL4 DNA-binding domain (Drosophila melanogaster) (UniProt Q24478).
T6 sequence: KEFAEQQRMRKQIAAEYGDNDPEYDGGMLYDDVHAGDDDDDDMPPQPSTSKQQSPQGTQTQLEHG
Briefly: two-hybrid; C2H2 proteins or their fragments fused to the GAL4 activation domain (pGAD424), CP190 BTB, D or M domain or full-length CP190 fused to the GAL4 DNA-binding domain (pGBT9); yeast strain pJ69-4A; growth on media without tryptophan, leucine, histidine and adenine compared after 2–3 days, 30 °C; includes the screen of a library of 154 C2H2 proteins.

The target in assay [8] is T7, CP190 M domain (309–470) fused to the GAL4 DNA-binding domain (Drosophila melanogaster) (UniProt Q24478).
T7 sequence: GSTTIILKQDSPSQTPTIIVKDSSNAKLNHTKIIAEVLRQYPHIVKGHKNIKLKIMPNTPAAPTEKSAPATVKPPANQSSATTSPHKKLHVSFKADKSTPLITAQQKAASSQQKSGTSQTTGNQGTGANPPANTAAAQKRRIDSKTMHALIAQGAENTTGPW
The description is as above.

B1: CP190 1–126 (BTB domain), tag cleaved, crystallised, Q24478 1-126 (domain or fragment)
chain: T1 chain
In the case of B1, the binding entry in assay [1] is on record as “binds”.

B2: 6×His-Thioredoxin-fused CP190 1–126 (BTB domain) (domain or fragment, UniProt Q24478 1-126)
chain: T1 chain
B2: the binding result is reported as “binds” in assay [2]; “binds” in assay [3]; “binds” in assay [4]; “binds” in assay [5]; “binds weakly” in assay [6].

B3: 6×His-Thioredoxin-fused CP190 1–126 V114N (domain or fragment, Drosophila melanogaster, UniProt Q24478 1-126, looked up)
chain: T1 chain with V114N
notes: CP190, Drosophila melanogaster, residues 1–126 (BTB domain); source: E. coli BL21, co-expressed with the GST fusion, in lysate (pull-down); bacterial expression (cross-linking)
As to B3, the binding entry in assay [3] and in assay [4] was “binds” in each case.

B4: 6×His-Thioredoxin-fused CP190 1–126 F15A (domain or fragment, Drosophila melanogaster, UniProt Q24478 1-126, looked up)
chain: T1 chain with F15A
notes: as for B3
In the case of B4, the binding result in assay [3] and in assay [4] was “binds” throughout.

B5: 6×His-Thioredoxin-fused CP190 1–126 V114A (domain or fragment, Drosophila melanogaster, UniProt Q24478 1-126, looked up)
chain: T1 chain with V114A
notes: as for B3
As for B5, the binding result in assay [3] and in assay [4] was “binds” each time.

B6: 6×His-Thioredoxin-fused CP190 1–126 K19A (domain or fragment, Drosophila melanogaster, UniProt Q24478 1-126, looked up)
chain: T1 chain with K19A
notes: as for B3
As for B6, the binding result in assay [3] and in assay [4] was “binds” throughout.

B7: 6×His-Thioredoxin-fused CP190 1–126 V7A (domain or fragment, Drosophila melanogaster, UniProt Q24478 1-126, looked up)
chain: T1 chain with V7A
notes: CP190, Drosophila melanogaster, residues 1–126 (BTB domain); also called BTB^V7A; source: E. coli BL21, co-expressed with the GST fusion, in lysate (pull-down); bacterial expression (cross-linking)
For the molecule B7, the binding entry in assay [2], in assay [4] and in assay [5] was “binds” each time.

B8: 6×His-Thioredoxin-fused CP190 1–126 K117S (domain or fragment, Drosophila melanogaster, UniProt Q24478 1-126, looked up)
chain: T1 chain with K117S
notes: as for B3
As for B8, the binding entry in assay [3] and in assay [4] was “binds” throughout.

B9: Su(Hw) fused to the GAL4 activation domain (protein, UniProt P08970 1-941)
chain: MSASKEGKEKKGKLLGVENISPPKDKRPATRMKLLNDVGAGEDSEASTTTTTSRTPSNKQEKRGSVAGSRIKILNEEILGTPKTEKRGATKSTAPAASTVKILNEKKTPSATVTAVETTKIKTSPSKRKKMEHYVLQAVKSENTKADTTVTVVTEEDDTIDFILADDEEVVPGRIENNNGQEIVVTEDDEDLGEDGDEDGEDSSGKGNSSQTKIKEIVEHVCGKCYKTFRRVQSLKKHLEFCRYDSGYHLRKADMLKNLEKIEKDAVVMEKKDICFCCSESYDTFHLGHINCPDCPKSFKTQTSYERHIFITHSEFSDFPCSICNANLRSEALLALHEEQHKSRGKPYACKICGKDFTRSYHLKRHQKYSSCSSNETDTMSCKVCDRVFYRLDNLRSHLKQHLGTQVVKKPEYMCHTCKNCFYSLSTLNIHIRTHTGEKPFDCDLCDKKFSALVALKKHRRYHTGEKPYSCTVCNQAFAVKEVLNRHMKRHTGERPHKCDECGKSFIQATQLRTHSKTHIRPFPCEQCDEKFKTEKQLERHVKTHSRTKRPVFSCAECKRNFRTPALLKEHMDEGKHSPKQQRSSMRSAVKIMERTDCAICDKNFDSSDTLRRHIRTVHECDPDDIFGVEPHPSKRAKKDIESEEVVPVALNTSAGSLISSQTDGNGVVVREFLVDEGDGAAQTITLENETYTILPLDGAIEGEQLTDEAGVKPEAKKEEAQVSPVVKKEQRKSLAASLAAAIADNLEESCSEDDFSGEILTEEDIKLKENVGKLIDMLVDPPILKKYGWPNAPEETVLCKVIENCGHDLTKGGENYAELDYGSRMREYCKLLFTVVIHNDSIKSLLNNFPIDDVIEYVLGDEDQDEGGLDKDNESHSGDEEAVSVTGETKTNEIREKPEKKEVSAKSEKKEIVGKAVDKDNSEEVVRENKKKPVGEQEKA
Consider B9, for which the binding entry in assay [7] and in assay [8] was “no binding” in each case.

B10: Pita fused to the GAL4 activation domain (protein, UniProt Q95RQ8 1-683)
chain: MAAKLEVREAMLTEKRVCRFCLTEQKLASIFEENPRVKTTANLPLQIMAITAIEVYAGDGMPGHICLECRLLFEHCYRFKQMCKRAETLLRQYPLTGNWPSPLEKPRAPMTMVASKKLLVVPAKTAEPSETPKKLLNTMAKSSSQVIIEDVQVLESAMVTPRTVAGSSPVPRRSHAYELKVDNNQELSMDDVQSMLEDMASELEKEFPDIPQKASPVKPKVLNKSSIRILNKGPAAPVEPRLATPKVKRDDSGNVAIVTEVLDSDLPLDDQDDPTKNAEKVATDVFPCPDCERSFPLQQLLEIHRLNHTRSRSFQCLLCEKSFFSKYDLAKHNFVHTGERPFKCAICSKAFTRKALLHRHERTHTDVPKFICVYCEKPFLSRQEMEKHAERHQKKRPFQCGVCTKSFAFKQGLERHETVHSTNLPFPCQHCERSFSTASKLARHLVAHAGKRAYPCKYCHKSYMLSHHLSRHLRTHTQTSDASFVCSECKVSYSNYNDLLDHALIHATASLKCPMCRKQIEDIDSVESHMDQHKQSERHACEFCDHIFLTQKCLQRHIEDDHVVEMEPYQNEFEDDGEGEGGVDEKEEHLDDFEDMDNVKQEEFVTEYLEDDALYEDHLDDSDESFTPPPPKQRKTNPPKDAQQSVRQTRSRDAQRITQKTGKNEGKPHHKLERNLKNRRSAK
Turning to B10, the binding result in assay [7] and in assay [8] was “no binding” in each case.

B11: dCTCF fused to the GAL4 activation domain (protein, UniProt Q9VS55 1-818)
chain: MPRRTKKDEDPEDLQTFLNNFHKEIEGNSDEKVVNTILEAISAEAIDLDENGAEAGGSKPMEEAEADLDHAEEAEEEEEDDEDKYFIDDEGNCYIKTTPKKQKELQKKLKQAAAKPGKATRSVVSTATNKSINLRPAKSTPKATTSKPPPEPKAISVRPARAAAAKAKQSAMPPPPALVVKVPAPRGRPRKNPVIPKPEPMDLERELEELVDEPDISSMVTELSDYTVDEAAVEAATATLTPNEAEVYEFEDNATTEDENADKKDVDFVLSNKEVKLKTASSTSQNSNASGHKYSCPHCPYTASKKFLITRHSRSHDVEPSFKCSICERSFRSNVGLQNHINTHMGNKPHKCKLCESAFTTSGELVRHTRYKHTKEKPHKCTECTYASVELTKLRRHMTCHTGERPYQCPHCTYASQDMFKLKRHMVIHTGEKKYQCDICKSRFTQSNSLKAHKLIHSVVDKPVFQCNYCPTTCGRKADLRVHIKHMHTSDVPMTCRRCGQQLPDRYQYKLHVKSHEGEKCYSCKLCSYASVTQRHLASHMLIHLDEKPFHCDQCPQAFRQRQLLRRHMNLVHNEEYQPPEPREKLHKCPSCPREFTHKGNLMRHMETHDDSANAREKRRRLKLGRNVRLQKDGTVITLIKDQYVDMDRDQEENEEDDNPESYDLAEIEPENSEAEDADDDVETIVSDPIRQRIKPAPIIINKQARLAASEKQPMIINQRLRSQRGTKTFHIKEEPDNSDFTVEWQGDDGEVMVVELVNGDEEVLVKHEPSANSKISAKNCFGFEDDDDYEEYGDGENEVDGASQEFLQLMDMIEQDS
For the molecule B11, the binding entry in assay [7] is “no binding”; in assay [8] it was “binds”.
